Measurements reported in paper PMC5027613, “A second DNA binding site in human BRCA2 promotes homologous recombination”.
Substitutions are numbered along the chain they refer to. For some assays here: Weaker means in comparison with the reference protein, sequence or condition of that experiment. For some assays here: Construct, isoform or probe ends are uncertain for at least one entry. For some assays here: At least one verdict was read from the data and is not stated in words by the source. For some assays here: Protein sequences can lack the tags named with them.

Tests used:
Test in all cases: EMSA
BRCA2T2 C341S (human) = molecular target: T1, BRCA2T2 C341S (human) (UniProt P51587); conditions: EMSA: 25 mM Tris acetate pH 7.5, 1 mM DTT, 1 mM MgCl2, 2 mM CaCl2, 0.2 uM nucleotides DNA, 1 h at 37 C, 6% native PAGE in 1x TAE, recombinant protein, residues 251-500, protein details: N-terminal 2xMBP, 2 NLS
T1 sequence (looked up): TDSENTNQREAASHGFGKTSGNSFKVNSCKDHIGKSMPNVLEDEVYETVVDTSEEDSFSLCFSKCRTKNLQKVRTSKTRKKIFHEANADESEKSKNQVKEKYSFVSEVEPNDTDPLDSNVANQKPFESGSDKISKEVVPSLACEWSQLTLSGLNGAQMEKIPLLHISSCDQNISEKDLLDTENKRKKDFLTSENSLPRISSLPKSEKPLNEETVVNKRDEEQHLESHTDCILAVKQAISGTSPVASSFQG

BRCA2T2 C279A (human) = molecular target: T2, BRCA2T2 C279A (human) (UniProt P51587); conditions: EMSA: 25 mM Tris acetate pH 7.5, 1 mM DTT, 1 mM MgCl2, 2 mM CaCl2, 0.2 uM nucleotides DNA, 1 h at 37 C, 6% native PAGE in 1x TAE, recombinant protein, residues 251-500, protein details: N-terminal 2xMBP, 2 NLS
T2 sequence (looked up): T1 sequence (looked up) with C29A, S91C

[1] = molecular target: T3, BRCA2T2 C279A/C315S (human) (UniProt P51587); conditions: EMSA: 25 mM Tris acetate pH 7.5, 1 mM DTT, 1 mM MgCl2, 2 mM CaCl2, 0.2 uM nucleotides DNA, 1 h at 37 C, 6% native PAGE in 1x TAE, recombinant protein, residues 251-500, protein details: N-terminal 2xMBP, 2 NLS
T3 sequence (looked up): T1 sequence (looked up) with C29A, C65S, S91C

[2] = molecular target: BRCA2 full length (human) (UniProt P51587); conditions: lesser extent than ssDNA, ~100 times lower concentration needed than BRCA2T2; EMSA: 25 mM Tris acetate pH 7.5, 1 mM DTT, 1 mM MgCl2, 2 mM CaCl2, 0.2 uM nucleotides DNA, 1 h at 37 C; 6% native PAGE in 1x TAE; recombinant protein; residues 1-3418; protein details: N-terminal EGFP-MBP; label: 5'-32P on oAC405
BRCA2T2 C315S (human) = molecular target: T4, BRCA2T2 C315S (human) (UniProt P51587); conditions: not significantly different from BRCA2T2, substrate dT40 per review file; EMSA: 25 mM Tris acetate pH 7.5, 1 mM DTT, 1 mM MgCl2, 2 mM CaCl2, 0.2 uM nucleotides DNA, 1 h at 37 C; 6% native PAGE in 1x TAE; recombinant protein; residues 251-500; protein details: N-terminal 2xMBP, 2 NLS; label: 5'-32P; single-stranded DNA
T4 sequence (looked up): T1 sequence (looked up) with C65S, S91C

[3] = not or very mildly affected, label: 5'-32P on oAC405
[4] = not significantly different from BRCA2T2, substrate dT40 per review file, label: 5'-32P, single-stranded DNA

## TAATACAAAATAAGTAAATGAATAAACAGAGAAAATAAAG (double strand) [40 bp dsDNA (oAC405/oAC406)]
BRCA2T2 C341S (human); [3]
  binding result: binds
BRCA2T2 C279A (human); [3]
  binding result: binds
[1]; C315S effect potentiated in double mutants, label: 5'-32P on oAC405
  binding result: binds more weakly
[2]
  binding result: binds more weakly

## TTTTTTTTTTTTTTTTTTTTTTTTTTTTTTTTTTTTTTTT [dT40 (oAC379)]
BRCA2T2 C341S (human); [4]
  binding result: binds
BRCA2T2 C279A (human); [4]
  binding result: binds
BRCA2T2 C315S (human)
  binding result: binds
[1]; [4]
  binding result: binds
